# The other results are listed elsewhere or left out. Shown are side measurements of this screen, not its main read-out; they come without a call. Most of these compounds were active or inconclusive in the main read-out, so they are no random draw. Words in brackets tell the shape of the fitted curve; partial curves, single points and poor fits give uncertain potencies.
# Test: IkB Signaling
# Settings: ABC-DLBCL IkBa-CBG/CBR dual luciferase ratio (green luciferase fused to IkBa over red control in OCI-Ly3 lymphoma cells), 4 h
# Outline: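 Luminescence ratio of IκBα-fused green versus native red beetle luciferase in OCI-Ly3 cells, 4 h post-doxycycline with compound; red signal alone, scaled from basal (0%) to zero light (-100%), flagged nonspecific or cytotoxic effects.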
# [1] = measured here: control luc red channel unless noted
smiles,measurement,setting,value
Cc1cccc(N(C)S(=O)(=O)c2cc(-c3cnc(C4CC4)o3)ccc2C)c1,AC50,[1],"31.6 µM [falling, single point]"
CCOc1ccc(/C=C/C(=O)Nc2ccc3nc(N(CC)CC)cc(C)c3c2)cc1OC,AC50,[1],"25.1 µM [falling, partial curve]"
CC(C)Cn1c(-c2ccc(Cl)cc2)cnc1SCC(=O)N1CCOCC1,AC50,[1],"15.8 µM [falling, partial curve]"
CCc1ccc(C2c3c(-c4ccccc4O)n[nH]c3C(=O)N2Cc2cccnc2)cc1 (centres undefined),AC50,[1],"25.1 µM [falling, partial curve]"
CCOc1ccc(NC(=O)Cn2nc3c(cc2=O)CC(C)CC3)cc1 (centres undefined),AC50,[1],"0.0158 µM [falling, full curve, poor fit]"
O=C1Nc2ccccc2C(O)(C(=O)NCc2ccco2)N1c1ccc(Cl)cc1 (centres undefined),AC50,[1],"0.158 µM [rising, full curve]"
O=C(CCSCCc1ccccn1)Nc1ccc(Cl)cc1,AC50,[1],"15.8 µM [falling, partial curve]"
Cc1ccc2c(C)c(C(=O)N(Cc3ccc(N(C)C)cc3)Cc3ccco3)oc2c1C,AC50,[1],"20 µM [falling, partial curve]"
Cc1ccc(C)c(N2CCN(C(=O)c3ccc(Cn4c(=O)[nH]c5ccccc5c4=O)cc3)CC2)c1,AC50,[1],"10 µM [falling, partial curve]"
CCCCCC(=O)Nc1cc(N(C)C)nc2ccccc12,AC50,[1],"31.6 µM [falling, partial curve]"
COc1ccc2c(c1)c(N1CCCC1=O)c(C(=O)Nc1cc(C)c(Cl)cc1OC)n2C,AC50,[1],"10 µM [falling, partial curve]"
Cc1ccc2c(c1)cc1c(=O)n(Cc3ccccc3Cl)nc(C)n12,AC50,[1],"12.6 µM [falling, partial curve]"
C=CCn1c(SCC(=O)Nc2nc3ccccc3s2)nnc1-c1ccccc1O,AC50,[1],"7.94 µM [falling, partial curve]"
CN1CCN(c2nc3c(S(=O)(=O)c4ccc(Cl)cc4)nnn3c3ccsc23)CC1,AC50,[1],"20 µM [falling, single point]"
CCOC(=O)c1c(N)n(-c2ccc(CC)cc2)c2nc3ccccc3nc12,AC50,[1],"15.8 µM [falling, partial curve]"
Cc1ccccc1N1CCN(S(=O)(=O)c2ccc3oc(=O)ccc3c2)CC1,AC50,[1],"10 µM [falling, partial curve]"
CCOc1ccc(NC(=O)CCCn2c(C)c3cnn(-c4ccccc4)c(=O)c3c2C)cc1,AC50,[1],"15.8 µM [falling, single point]"
CCn1nc(C)c2c(-c3ccccc3)cc(=O)n(C(C)C(=O)NCCc3ccc(Cl)cc3)c21 (centres undefined),AC50,[1],"25.1 µM [falling, partial curve]"
Cc1ccc2nc(-c3cccc(NC(=O)c4ccco4)c3)[nH]c2c1,AC50,[1],"15.8 µM [falling, partial curve]"
CCOc1cccc(CNCCCSc2nnnn2C)c1,AC50,[1],"3.98 µM [rising, partial curve]"
Oc1c(C(c2ccccc2)N2CCCC2)sc2nc(-c3ccco3)nn12 (centres undefined),AC50,[1],"7.94 µM [rising, partial curve]"
CCOC(=O)Cc1ccc(NC(=O)NC(C)c2c(-n3cccc3)sc(C)c2C)cc1 (centres undefined),AC50,[1],"39.8 µM [falling, single point]"
Cc1cc2oc(=O)c(CC(=O)O)c(C)c2c2occ(-c3ccccc3)c12,AC50,[1],"31.6 µM [falling, partial curve]"
CCc1ccc2oc(-c3cc(NC(=O)c4cc(OC)c(OC)c(OC)c4)ccc3O)nc2c1,AC50,[1],"7.94 µM [falling, partial curve, poor fit]"
CCOc1ccc2[nH]c(=O)c(C(c3nnnn3Cc3ccco3)N3CCC(C)CC3)cc2c1 (centres undefined),AC50,[1],"25.1 µM [falling, partial curve]"
CC(=O)c1ccc(NC(=O)CSc2nc(=O)n(Cc3ccccn3)c3c2CCC3)cc1,AC50,[1],"39.8 µM [falling, single point]"
COc1cccc(-c2cn3c(n2)sc2cc(C(=O)NC4CCCCC4)ccc23)c1,AC50,[1],"12.6 µM [falling, partial curve]"
CC(C)C(c1nnnn1C1CCCC1)N1c2ccccc2CC1C (centres undefined),AC50,[1],"15.8 µM [falling, partial curve]"
COc1cc(NC(=O)C2CCN(c3cnccn3)CC2)cc(OC)c1,AC50,[1],"25.1 µM [falling, partial curve, poor fit]"
S=C(S)O[C@@H]1C[C@@H]2C[C@H]1[C@@H]1CCC[C@H]21,AC50,[1],"39.8 µM [rising, single point] [measured here: IkB-luc green channel]"
Cc1c(C(=O)NCc2ccc3c(c2)OCO3)oc2ccc(S(=O)(=O)N3CCC(C)CC3)cc12,AC50,[1],"3.16 µM [falling, full curve, poor fit]"
COc1ccc(C(CNC(=O)c2oc3cc(C)c(C)cc3c2C)N2CCCCC2)cc1 (centres undefined),AC50,[1],"25.1 µM [falling, single point]"
Cc1ccc(Nc2nc(N)nc(CSc3nc4ccccc4s3)n2)cc1,AC50,[1],"31.6 µM [falling, single point]"
Cc1c2cnn(CC(=O)NCc3ccc(Cl)cc3)c(=O)c2c(C)n1Cc1ccc(F)cc1,AC50,[1],"10 µM [falling, partial curve]"
Cc1nc(CNS(=O)(=O)c2ccc(Oc3ccccc3)cc2)cs1,AC50,[1],"2.51 µM [falling, full curve]"
Cc1ccccc1Nc1nn2c(=O)c3ccc(C(=O)NCc4cccs4)cc3nc2s1,AC50,[1],"0.316 µM [falling, full curve, poor fit]"
COC(=O)c1ccc(OC)c(CSc2nnc(COc3ccccc3)o2)c1,AC50,[1],"39.8 µM [falling, single point]"
COc1ccc(OC)c(N(CC(=O)Nc2ccc3c(c2)OCO3)S(=O)(=O)c2ccccc2)c1,AC50,[1],"1.58 µM [falling, partial curve]"
Cc1ccc(S(=O)(=O)N2CCCC(C(=O)NCCc3ccc4c(c3)OCO4)C2)cc1 (centres undefined),AC50,[1],"39.8 µM [falling, single point]"
CCc1cc(C(=O)COc2ccccc2F)c(O)cc1O,AC50,[1],"39.8 µM [falling, single point]"
Cc1ccc(NS(=O)(=O)c2ccc3oc(=O)c4ncn(C)c4c3c2)cc1C,AC50,[1],"20 µM [falling, partial curve]"
COc1ccc(CCNc2ncnc3c2cnn3-c2ccc(C)c(Cl)c2)cc1,AC50,[1],"10 µM [falling, partial curve]"
Cc1ccc(-c2cc(-c3ccccc3)c(C#N)c(N)n2)o1,AC50,measured here: IkB-luc green channel,"6.31 µM [rising, single point]"
same,AC50,measured here: control luc red channel,"39.8 µM [falling, single point]"
O=C(CCC1N=C2c3ccccc3N=C(SCc3ccc(Cl)cc3)N2C1=O)NCc1cccs1 (centres undefined),AC50,[1],"31.6 µM [falling, single point]"
CN(C)c1ccc(CNC(=O)CN2C(=O)C3CCCCN3c3ccc(C(=O)N4CCCC4)cc32)cc1 (centres undefined),AC50,[1],"0.00631 µM [falling, full curve, poor fit]"
c1ccc2c(c1)nc(NCC1CCCO1)c1nnnn12 (centres undefined),AC50,[1],"0.126 µM [falling, full curve]"
CCN1CCN(C(c2ccccc2Cl)c2c(O)cc(C)n(Cc3ccco3)c2=O)CC1 (centres undefined),AC50,[1],"31.6 µM [falling, single point]"
Cn1c(=O)c2c(ncn2Cc2ccc(Cl)cc2)n(C)c1=O,AC50,[1],"15.8 µM [falling, partial curve]"
Cc1ccc(S(=O)(=O)N(C)CC(=O)Nc2nc3ccccc3s2)cc1,AC50,[1],"12.6 µM [falling, partial curve]"
Cc1cccc(N2CCN(C(=O)c3noc4c3CCCCC4)CC2)c1C,AC50,[1],"15.8 µM [falling, partial curve]"
COc1ccccc1NC(=O)c1cn(-c2ccccc2)nc1-c1ccccc1,AC50,[1],"1 µM [falling, full curve]"
N#Cc1nc(/C=C/c2ccc(F)cc2)oc1NCc1ccc(F)cc1,AC50,[1],"39.8 µM [falling, partial curve, poor fit]"
COc1ccc(C(=O)CSc2nnc(-c3cc4ccccc4cc3O)n2Cc2ccco2)cc1,AC50,[1],"31.6 µM [falling, partial curve]"
O=C1CC(=O)Nc2cc(S(=O)(=O)N3CCOc4ccc(Cl)cc43)ccc2N1,AC50,[1],"25.1 µM [falling, single point]"
COc1cc(CN(C)CC(=O)c2[nH]c(C)c(C(C)=O)c2C)ccc1OC(F)F,AC50,[1],"20 µM [falling, single point]"
CCCCn1nnc(NC(=O)COc2cc(C)ccc2C(C)C)n1,AC50,[1],"15.8 µM [falling, partial curve]"
COc1ccc2c(CNCCc3cccs3)c(C(=O)O)n(Cc3cccc(F)c3)c2c1,AC50,[1],"10 µM [falling, partial curve]"
Cc1ccc(CNC(=O)CN2CCN(Cc3ccc(F)cc3Cl)C2=O)cc1,AC50,[1],"20 µM [falling, partial curve]"
CCOc1ccccc1C(=O)NCc1nc2cccnc2n1Cc1ccc(C)cc1,AC50,[1],"0.398 µM [rising, full curve, poor fit]"
CCOc1cc(CNC(=O)c2ccc3c(c2)N(C)C(=O)C2CCCCN32)ccc1OC (centres undefined),AC50,[1],"6.31 µM [falling, full curve]"
Cc1ccc(-n2ncc3c(NC4CCCCC4)ncnc32)cc1Cl,AC50,[1],"20 µM [falling, partial curve, poor fit]"
Cc1nnc(NC(=O)CCC(=O)N2CCN(CCc3ccccc3)CC2)s1,AC50,[1],"3.98 µM [falling, full curve]"
COc1ccc(CNC(=O)CCCn2nc(C)c3c(C)n(-c4ccc(C)cc4)nc3c2=O)cc1OC,AC50,[1],"7.94 µM [falling, partial curve]"

# Exported bar-delimited: entries from further up
smiles | measurement | setting | value
CCOC(=O)Cc1ccc(NC(=O)NC(C)c2c(-n3cccc3)sc(C)c2C)cc1 (centres undefined) | AC50 | [1] | 39.8 µM [falling, single point]
Cc1cc2oc(=O)c(CC(=O)O)c(C)c2c2occ(-c3ccccc3)c12 | AC50 | [1] | 31.6 µM [falling, partial curve]
CCc1ccc2oc(-c3cc(NC(=O)c4cc(OC)c(OC)c(OC)c4)ccc3O)nc2c1 | AC50 | [1] | 7.94 µM [falling, partial curve, poor fit]
CCOc1ccc2[nH]c(=O)c(C(c3nnnn3Cc3ccco3)N3CCC(C)CC3)cc2c1 (centres undefined) | AC50 | [1] | 25.1 µM [falling, partial curve]
CC(=O)c1ccc(NC(=O)CSc2nc(=O)n(Cc3ccccn3)c3c2CCC3)cc1 | AC50 | [1] | 39.8 µM [falling, single point]
COc1cccc(-c2cn3c(n2)sc2cc(C(=O)NC4CCCCC4)ccc23)c1 | AC50 | [1] | 12.6 µM [falling, partial curve]
